Some entries share one result that the patent states for a list of compounds.
Test system: gastrointestinal transit of a charcoal meal in the rat
Experiment: Charcoal propulsion test (gut motility) in rat
Type: in vivo
Settings: oral
Experimental: The effect of a drug on gut motility can be studied by means of the charcoal propulsion test.
The method used was based on that described by Takemori et al. (J. Pharmacol. Exp. Ther. 169:39, 1969). Test treatments were administered orally 60 minutes prior to an oral dose of a 10% suspension of charcoal in 2.5% gum Arabic (2 ml/kg). Twenty minutes after dosing with charcoal, the rats were sacrificed and the entire gastrointestinal tract was removed quickly and carefully. The distance that the charcoal meal had traveled toward the caecum was measured and expressed as a percentage of the total gut length.

## CC(C)[C@H](N)C(=O)NCCC(=O)NC(=N)NC(=O)Cc1c(Cl)cccc1Cl [Compound 2, Guanfacine (β-Alanine-(S)-Valine) Amide]
  dose required to inhibit GIT transit to the same extent as guanfacine, as molar equivalents: ≥ 10 fold

From patent publication US20110065796A1 (SHIRE LLC, priority 2009, published 2011)
